Article PMC4230356
Results are given in words; binding and its absence hold for the method and conditions named. In cells and extracts the contact can be indirect. Some entries that bind do so weakly or less than the wild type. For part of these data: Where a sequence is shown, tags or fusion partners need not be part of it.

Protein sequences, listed by entry. Tags and fused reporters are not part of them.
UniProt P08047: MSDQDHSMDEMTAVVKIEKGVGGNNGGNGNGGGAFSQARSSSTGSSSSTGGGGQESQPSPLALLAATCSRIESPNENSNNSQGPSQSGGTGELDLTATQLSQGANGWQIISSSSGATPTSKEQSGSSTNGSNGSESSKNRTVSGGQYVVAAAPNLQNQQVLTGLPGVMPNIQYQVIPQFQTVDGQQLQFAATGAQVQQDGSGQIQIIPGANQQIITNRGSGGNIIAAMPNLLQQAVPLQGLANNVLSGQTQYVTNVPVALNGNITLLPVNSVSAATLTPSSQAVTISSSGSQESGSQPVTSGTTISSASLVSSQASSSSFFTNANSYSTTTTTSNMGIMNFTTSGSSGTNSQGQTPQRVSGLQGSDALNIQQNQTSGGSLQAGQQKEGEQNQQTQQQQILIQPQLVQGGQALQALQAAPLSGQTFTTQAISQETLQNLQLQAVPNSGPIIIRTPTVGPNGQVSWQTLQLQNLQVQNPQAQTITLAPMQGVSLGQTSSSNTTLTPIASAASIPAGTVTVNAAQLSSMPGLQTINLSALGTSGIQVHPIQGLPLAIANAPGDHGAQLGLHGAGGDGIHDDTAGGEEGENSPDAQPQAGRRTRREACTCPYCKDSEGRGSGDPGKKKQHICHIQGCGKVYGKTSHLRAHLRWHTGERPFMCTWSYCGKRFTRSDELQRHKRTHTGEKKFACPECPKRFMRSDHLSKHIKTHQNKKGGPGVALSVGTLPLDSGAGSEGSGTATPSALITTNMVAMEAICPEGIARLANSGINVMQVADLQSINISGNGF
UniProt P20226: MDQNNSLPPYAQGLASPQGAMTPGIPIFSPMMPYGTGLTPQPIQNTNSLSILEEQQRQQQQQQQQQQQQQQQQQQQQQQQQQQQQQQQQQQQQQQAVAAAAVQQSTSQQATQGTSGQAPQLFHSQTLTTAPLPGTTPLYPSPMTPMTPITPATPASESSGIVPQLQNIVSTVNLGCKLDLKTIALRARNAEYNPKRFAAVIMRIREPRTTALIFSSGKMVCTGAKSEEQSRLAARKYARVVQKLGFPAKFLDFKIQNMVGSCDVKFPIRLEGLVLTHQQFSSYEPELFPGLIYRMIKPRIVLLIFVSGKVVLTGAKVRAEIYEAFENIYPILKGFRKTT

Assays:
Experiment in all cases: pull-down; HaloTag bait fusion (in vitro translated) mixed with [35S]-methionine labeled prey (in vitro translated) for 1 h at RT; captured on HaloLink resin for 90 min at 4°C in 100 mM Tris pH 7.6, 150 mM NaCl, 0.05% IGEPAL; washed with buffer containing 1 mg/ml BSA; 12% SDS-PAGE; TNT mix without bait as negative control
[1] = molecular target: T1, MBD1v1, HaloTag bait fusion protein (UniProt Q9UIS9)
T1 sequence: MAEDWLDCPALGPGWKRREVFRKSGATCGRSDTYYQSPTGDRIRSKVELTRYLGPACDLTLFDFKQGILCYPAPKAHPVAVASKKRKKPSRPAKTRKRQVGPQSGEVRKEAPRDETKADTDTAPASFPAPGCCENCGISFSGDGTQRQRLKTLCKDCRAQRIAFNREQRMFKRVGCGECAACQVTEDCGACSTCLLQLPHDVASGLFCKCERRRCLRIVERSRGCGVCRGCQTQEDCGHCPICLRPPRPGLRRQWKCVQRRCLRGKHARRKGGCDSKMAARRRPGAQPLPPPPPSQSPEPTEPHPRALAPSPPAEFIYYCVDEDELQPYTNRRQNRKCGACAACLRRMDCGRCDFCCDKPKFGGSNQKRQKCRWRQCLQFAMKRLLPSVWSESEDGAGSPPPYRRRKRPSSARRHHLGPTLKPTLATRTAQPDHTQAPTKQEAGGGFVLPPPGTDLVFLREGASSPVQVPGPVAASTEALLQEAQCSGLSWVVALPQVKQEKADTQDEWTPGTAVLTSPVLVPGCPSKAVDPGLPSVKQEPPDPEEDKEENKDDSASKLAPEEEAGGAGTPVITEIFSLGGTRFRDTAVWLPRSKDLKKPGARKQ

[2] = molecular target: T2, Ets-1, HaloTag bait fusion protein (UniProt P14921)
T2 sequence: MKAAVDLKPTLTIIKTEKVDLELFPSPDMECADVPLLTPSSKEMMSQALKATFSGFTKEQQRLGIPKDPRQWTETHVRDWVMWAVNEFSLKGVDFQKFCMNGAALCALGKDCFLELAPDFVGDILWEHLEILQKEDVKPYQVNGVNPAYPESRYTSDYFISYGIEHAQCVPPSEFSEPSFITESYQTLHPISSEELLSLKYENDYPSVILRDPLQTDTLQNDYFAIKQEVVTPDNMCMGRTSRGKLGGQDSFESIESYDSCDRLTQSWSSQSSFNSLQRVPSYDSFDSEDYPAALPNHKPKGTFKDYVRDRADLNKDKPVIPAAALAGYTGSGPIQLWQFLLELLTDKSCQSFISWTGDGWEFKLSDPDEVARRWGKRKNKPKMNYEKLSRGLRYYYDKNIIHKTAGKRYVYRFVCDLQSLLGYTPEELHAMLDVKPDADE

[3] = molecular target: T3, BORIS (Brother of the Regulator of Imprinted Sites), HaloTag bait fusion protein (UniProt Q8NI51)
T3 sequence: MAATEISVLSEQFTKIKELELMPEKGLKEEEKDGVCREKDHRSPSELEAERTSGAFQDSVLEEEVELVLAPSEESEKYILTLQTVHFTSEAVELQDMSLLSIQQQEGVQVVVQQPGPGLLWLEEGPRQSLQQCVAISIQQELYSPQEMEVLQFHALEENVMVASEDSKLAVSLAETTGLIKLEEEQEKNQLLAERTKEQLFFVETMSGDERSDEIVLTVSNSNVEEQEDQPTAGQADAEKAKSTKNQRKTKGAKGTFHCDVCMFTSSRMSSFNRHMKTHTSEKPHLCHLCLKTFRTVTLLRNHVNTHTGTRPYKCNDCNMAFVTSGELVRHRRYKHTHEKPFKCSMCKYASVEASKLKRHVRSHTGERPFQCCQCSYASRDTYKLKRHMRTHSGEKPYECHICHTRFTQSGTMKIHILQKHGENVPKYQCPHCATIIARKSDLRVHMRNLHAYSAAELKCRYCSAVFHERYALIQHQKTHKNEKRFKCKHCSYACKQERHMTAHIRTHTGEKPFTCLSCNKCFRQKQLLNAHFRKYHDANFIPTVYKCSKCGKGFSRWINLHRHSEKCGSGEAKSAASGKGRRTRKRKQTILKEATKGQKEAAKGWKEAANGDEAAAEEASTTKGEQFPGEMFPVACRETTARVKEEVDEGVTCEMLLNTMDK

[4] = molecular target: Sp1, HaloTag bait fusion protein (UniProt P08047)

Row | binding [1] | binding [2] | binding [3] | binding [4] | Substance
1 | binds weakly | binds | binds weakly |  | Sp1, [35S]-L-methionine labeled prey protein (from UniProt P08047 1-785)
2 |  | binds | binds | binds | human TATA binding protein (hTBP), full length, [35S]-L-methionine labeled prey protein (from UniProt P20226 1-339)
